Results deposited as PubChem BioAssay AID1159594 (NIAID, 2016)
Test: 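Which core toll-like receptor signalling genes are needed for TNF promoter activation by Pam2CSK4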. Cells: human THP-1 B5 reporter cells, PMA-differentiated into macrophage-like cells. Reagents: single siRNA against human genes. Duration: 48 to 72 hours after siRNA transfection; ligand exposure 4 hours. Conditions: Pam2CSK4 (TLR2/6 agonist) stimulation for 4 hours before lysis; dose not given. Measurement: 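TNF promoter reporter signal as firefly to renilla luciferase ratio, scaled per plate by median and MAD, given as robust z-score against negative controls, averaged across replicates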. Scale: TNF reporter z-score: higher = stronger TNF promoter reporter activity. Call rule: 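Active when the mean z-score across replicates is at or beyond ±1.5 in either direction, matching a depositor grade of 50 or higher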. Meaning of the calls: active = z-score beyond ±1.5 (either direction); inactive = z-score within ±1.5.
Shown is one part, drawn at random, of 756 reagents tested. 130 of all reagents (17%) were called active. 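Active calls cover both falls and rises of reporter activity; each row reflects one siRNA, not a gene-level verdict.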 Entries without a mark were called inactive. Reagents against one gene are numbered here. Reagent sequences are not shown. Not given: the amount of reagent.

Target gene | siRNA no. | TNF reporter z-score, replicate mean
MAP2K4 (mitogen-activated protein kinase kinase 4) | 1 | -1.33
MAP2K4 (mitogen-activated protein kinase kinase 4) | 2 | -1.57 (active)
MAP2K4 (mitogen-activated protein kinase kinase 4) | 3 | -0.27
MAP2K4 (mitogen-activated protein kinase kinase 4) | 4 | -0.0765
MAP2K4 (mitogen-activated protein kinase kinase 4) | 5 | -0.202
MAP2K4 (mitogen-activated protein kinase kinase 4) | 6 | 0.0929
TRAF6 (TNF receptor associated factor 6) | 1 | -3.75 (active)
TRAF6 (TNF receptor associated factor 6) | 2 | -4.19 (active)
TRAF6 (TNF receptor associated factor 6) | 3 | -6.12 (active)
TRAF6 (TNF receptor associated factor 6) | 4 | -2.38 (active)
TRAF6 (TNF receptor associated factor 6) | 5 | -4.02 (active)
TRAF6 (TNF receptor associated factor 6) | 6 | -3.26 (active)
CCL3 (C-C motif chemokine ligand 3) | 1 | -1.8 (active)
CCL3 (C-C motif chemokine ligand 3) | 2 | -0.193
CCL3 (C-C motif chemokine ligand 3) | 3 | -0.18
CCL3 (C-C motif chemokine ligand 3) | 4 | 0.0456
CCL3 (C-C motif chemokine ligand 3) | 5 | -0.357
CCL3 (C-C motif chemokine ligand 3) | 6 | 0.197
BTK (Bruton tyrosine kinase) | 1 | 0.3
BTK (Bruton tyrosine kinase) | 2 | -0.891
BTK (Bruton tyrosine kinase) | 3 | -0.901
BTK (Bruton tyrosine kinase) | 4 | 0.121
BTK (Bruton tyrosine kinase) | 5 | -0.0216
BTK (Bruton tyrosine kinase) | 6 | -0.381
PTPN6 (protein tyrosine phosphatase non-receptor type 6) | 1 | -0.0124
PTPN6 (protein tyrosine phosphatase non-receptor type 6) | 2 | 0.31
PTPN6 (protein tyrosine phosphatase non-receptor type 6) | 3 | -0.371
PTPN6 (protein tyrosine phosphatase non-receptor type 6) | 4 | -2.13 (active)
PTPN6 (protein tyrosine phosphatase non-receptor type 6) | 5 | -1.22
PTPN6 (protein tyrosine phosphatase non-receptor type 6) | 6 | -1.16
IFNB1 (interferon beta 1) | 1 | -0.95
IFNB1 (interferon beta 1) | 2 | -0.0518
IFNB1 (interferon beta 1) | 3 | -0.138
IFNB1 (interferon beta 1) | 4 | 0.104
IFNB1 (interferon beta 1) | 5 | -1.71 (active)
IFNB1 (interferon beta 1) | 6 | -1.77 (active)
MAP2K7 (mitogen-activated protein kinase kinase 7) | 1 | -1
MAP2K7 (mitogen-activated protein kinase kinase 7) | 2 | -0.444
MAP2K7 (mitogen-activated protein kinase kinase 7) | 3 | -0.226
MAP2K7 (mitogen-activated protein kinase kinase 7) | 4 | -0.183
MAP2K7 (mitogen-activated protein kinase kinase 7) | 5 | -2.25 (active)
MAP2K7 (mitogen-activated protein kinase kinase 7) | 6 | -1.16
TAB3 (TGF-beta activated kinase 1 (MAP3K7) binding protein 3) | 1 | -0.31
TAB3 (TGF-beta activated kinase 1 (MAP3K7) binding protein 3) | 2 | 0.726
TAB3 (TGF-beta activated kinase 1 (MAP3K7) binding protein 3) | 3 | -0.0429
TAB3 (TGF-beta activated kinase 1 (MAP3K7) binding protein 3) | 4 | 0.339
TAB3 (TGF-beta activated kinase 1 (MAP3K7) binding protein 3) | 5 | 0.289
TAB3 (TGF-beta activated kinase 1 (MAP3K7) binding protein 3) | 6 | -0.989
TNF (tumor necrosis factor) | 1 | 0.0503
TNF (tumor necrosis factor) | 2 | -2.14 (active)
TNF (tumor necrosis factor) | 3 | -2.06 (active)
TNF (tumor necrosis factor) | 4 | -0.129
TNF (tumor necrosis factor) | 5 | -1.89 (active)
TNF (tumor necrosis factor) | 6 | -3.23 (active)
NFKBIA (NFKB inhibitor alpha) | 1 | -1.52 (active)
NFKBIA (NFKB inhibitor alpha) | 2 | -0.0507
NFKBIA (NFKB inhibitor alpha) | 3 | -0.0514
NFKBIA (NFKB inhibitor alpha) | 4 | -1.03
NFKBIA (NFKB inhibitor alpha) | 5 | -0.314
NFKBIA (NFKB inhibitor alpha) | 6 | -0.68
PIK3R1 (phosphoinositide-3-kinase regulatory subunit 1) | 1 | -0.817
PIK3R1 (phosphoinositide-3-kinase regulatory subunit 1) | 2 | 0.00349
PIK3R1 (phosphoinositide-3-kinase regulatory subunit 1) | 3 | 0.594
PIK3R1 (phosphoinositide-3-kinase regulatory subunit 1) | 4 | 0.651
PIK3R1 (phosphoinositide-3-kinase regulatory subunit 1) | 5 | -1.7 (active)
PIK3R1 (phosphoinositide-3-kinase regulatory subunit 1) | 6 | 0.362
TLR5 (toll like receptor 5) | 1 | -0.246
TLR5 (toll like receptor 5) | 2 | 0.116
TLR5 (toll like receptor 5) | 3 | -0.716
TLR5 (toll like receptor 5) | 4 | -0.147
TLR5 (toll like receptor 5) | 5 | 0.255
TLR5 (toll like receptor 5) | 6 | -1.8 (active)
CD14 (CD14 molecule) | 1 | 0.517
CD14 (CD14 molecule) | 2 | 0.156
CD14 (CD14 molecule) | 3 | 0.558
CD14 (CD14 molecule) | 4 | -0.608
CD14 (CD14 molecule) | 5 | -1.45
CD14 (CD14 molecule) | 6 | -0.106
MAPK9 (mitogen-activated protein kinase 9) | 1 | -0.458
MAPK9 (mitogen-activated protein kinase 9) | 2 | -0.537
MAPK9 (mitogen-activated protein kinase 9) | 3 | -0.349
MAPK9 (mitogen-activated protein kinase 9) | 4 | 1.57 (active)
MAPK9 (mitogen-activated protein kinase 9) | 5 | -0.688
MAPK9 (mitogen-activated protein kinase 9) | 6 | -0.483
ELK1 (ETS transcription factor ELK1) | 1 | -0.334
ELK1 (ETS transcription factor ELK1) | 2 | -2.57 (active)
ELK1 (ETS transcription factor ELK1) | 3 | -1.42
ELK1 (ETS transcription factor ELK1) | 4 | -0.418
ELK1 (ETS transcription factor ELK1) | 5 | -0.34
ELK1 (ETS transcription factor ELK1) | 6 | 0.135
CYLD (CYLD lysine 63 deubiquitinase) | 1 | 0.362
CYLD (CYLD lysine 63 deubiquitinase) | 2 | -0.835
CYLD (CYLD lysine 63 deubiquitinase) | 3 | 0.895
CYLD (CYLD lysine 63 deubiquitinase) | 4 | 0.0904
CYLD (CYLD lysine 63 deubiquitinase) | 5 | 0.202
CYLD (CYLD lysine 63 deubiquitinase) | 6 | -1.12
FADD (Fas associated via death domain) | 1 | 0.993
FADD (Fas associated via death domain) | 2 | -0.368
FADD (Fas associated via death domain) | 3 | -0.814
FADD (Fas associated via death domain) | 4 | -0.798
FADD (Fas associated via death domain) | 5 | 0.311
FADD (Fas associated via death domain) | 6 | -1.56 (active)
CASP8 (caspase 8) | 1 | 0.15
CASP8 (caspase 8) | 2 | -0.508
CASP8 (caspase 8) | 3 | 0.0536
CASP8 (caspase 8) | 4 | -0.513
CASP8 (caspase 8) | 5 | 0.259
CASP8 (caspase 8) | 6 | -0.55
MAPKAPK2 (MAPK activated protein kinase 2) | 1 | 0.169
MAPKAPK2 (MAPK activated protein kinase 2) | 2 | -0.431
MAPKAPK2 (MAPK activated protein kinase 2) | 3 | -0.853
MAPKAPK2 (MAPK activated protein kinase 2) | 4 | -0.215
MAPKAPK2 (MAPK activated protein kinase 2) | 5 | 0.65
MAPKAPK2 (MAPK activated protein kinase 2) | 6 | -1.31
MAP2K1 (mitogen-activated protein kinase kinase 1) | 1 | -0.866
MAP2K1 (mitogen-activated protein kinase kinase 1) | 2 | -0.913
MAP2K1 (mitogen-activated protein kinase kinase 1) | 3 | -0.82
MAP2K1 (mitogen-activated protein kinase kinase 1) | 4 | -0.447
MAP2K1 (mitogen-activated protein kinase kinase 1) | 5 | -1.49
MAP2K1 (mitogen-activated protein kinase kinase 1) | 6 | 0.121
IFNAR1 (interferon alpha and beta receptor subunit 1) | 1 | -1.26
IFNAR1 (interferon alpha and beta receptor subunit 1) | 2 | -0.884
IFNAR1 (interferon alpha and beta receptor subunit 1) | 3 | 0.148
IFNAR1 (interferon alpha and beta receptor subunit 1) | 4 | 0.177
IFNAR1 (interferon alpha and beta receptor subunit 1) | 5 | -1.24
IFNAR1 (interferon alpha and beta receptor subunit 1) | 6 | 0.181
LY86 (lymphocyte antigen 86) | 1 | 0.31
LY86 (lymphocyte antigen 86) | 2 | -0.107
LY86 (lymphocyte antigen 86) | 3 | 0.000125
LY86 (lymphocyte antigen 86) | 4 | -1.08
LY86 (lymphocyte antigen 86) | 5 | -0.449
LY86 (lymphocyte antigen 86) | 6 | 0.146
OTUD5 (OTU deubiquitinase 5) | 1 | -1.46
OTUD5 (OTU deubiquitinase 5) | 2 | -1.93 (active)
OTUD5 (OTU deubiquitinase 5) | 3 | -0.878
OTUD5 (OTU deubiquitinase 5) | 4 | -2.03 (active)
OTUD5 (OTU deubiquitinase 5) | 5 | -1.9 (active)
OTUD5 (OTU deubiquitinase 5) | 6 | -1.8 (active)
MAP2K6 (mitogen-activated protein kinase kinase 6) | 1 | -0.313
MAP2K6 (mitogen-activated protein kinase kinase 6) | 2 | -0.525
MAP2K6 (mitogen-activated protein kinase kinase 6) | 3 | 0.454
MAP2K6 (mitogen-activated protein kinase kinase 6) | 4 | 0.464
MAP2K6 (mitogen-activated protein kinase kinase 6) | 5 | 0.0382
MAP2K6 (mitogen-activated protein kinase kinase 6) | 6 | 0.697

A few values from above.
BTK (Bruton tyrosine kinase) #6, TNF reporter z-score, replicate mean → -0.381
TLR5 (toll like receptor 5) #2, TNF reporter z-score, replicate mean = 0.116
Entry for OTUD5 (OTU deubiquitinase 5) #3 in “TNF reporter z-score, replicate mean”: -0.878
Under “TNF reporter z-score, replicate mean”, PIK3R1 (phosphoinositide-3-kinase regulatory subunit 1) #1 reads -0.817
Under “TNF reporter z-score, replicate mean”, ELK1 (ETS transcription factor ELK1) #3 reads -1.42
Entry for MAP2K4 (mitogen-activated protein kinase kinase 4) #2 in “TNF reporter z-score, replicate mean”: -1.57 (active)
